From the supplement of paper PMC12889115
Some of the results follow. Values are raw readings; no control value is given beside them.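 First-pass screen: polymyxin B was added at a level that permeabilizes the Salmonella outer membrane while sparing the inner membrane. DMSO wells, with and without polymyxin B, defined maximum growth. Because plates differed from one another, each plate's data were ranked separately and the compounds with the lowest OD600 were carried forward as hits.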

Test system: Salmonella enterica serovar Typhimurium SL1344
Test: bacterial growth OD600 after 18 h with compound and polymyxin B; higher = more bacterial growth (less inhibition)
Conditions: 50 µM, Mueller-Hinton broth

SMILES | bacterial growth OD600 (polymyxin B 1 µg/mL) | bacterial growth OD600 (polymyxin B 0.75 µg/mL)
COc1ccc2cc(-c3n[nH]cc3CN(Cc3nccn3C)C(C)C)ccc2c1 | 0.833 | 
CO[C@H]1[C@H](NC(=O)c2ccsc2)c2ccccc2C12CCN(Cc1cccc(OCCO)c1)CC2 |  | 0.749
Cc1ccccc1N1CCN(C2CCCN(Cc3ccc(O)cc3)C2)CC1 (stereo unspecified) | 0.889 | 
C=CCn1cc(CN2C[C@H]3OC(=O)N(CCc4ccc(F)cc4)[C@H]3C2)c(C)n1 |  | 0.852
CCOC(=O)c1csc(CCNC(=O)C2CCN(c3nc(C)c4cc(C(C)C)ccc4n3)CC2)n1 |  | 0.676
CCOC(=O)C1(Cc2cccc(Cl)c2)CCCN(C(=O)CCC(F)(F)F)C1 (stereo unspecified) | 0.607 | 
CCN1CCN(C2(C(=O)NCCc3c[nH]cn3)Cc3ccccc3C2)CC1 |  | 0.786
COc1cccc(NC(=O)CCC2CCN(C(=O)[C@H]3C[C@@H]4C=C[C@H]3C4)CC2)c1 | 1.15 | 
COc1ccc(OC2CCN(C3CCCC3)CC2)c(C(=O)NC(C)c2ccncn2)c1 (stereo unspecified) | 0.892 | 
O=C(CCC1CCCN(C(=O)c2cc3c(nc2Cl)CCC3)C1)NC1CC1 (stereo unspecified) | 1.02 | 
CN(CCc1ccccn1)c1ncccc1CNC(=O)c1ccccn1 | 0.939 | 
COC(CNc1nc2nonc2nc1NCc1cccs1)c1cccs1 (stereo unspecified) | 0.944 | 
CCN1CCN(C2(C(=O)NCc3csc(C)n3)Cc3ccccc3C2)CC1 |  | 0.836
CCOC(=O)N1CCN(C(=O)C2CCC(=O)N(CCc3ccccn3)C2)CC1 (stereo unspecified) | 0.701 | 
Cc1ncc2c(c1CNC(=O)c1ccc3c(c1)OCO3)CCN(C(=O)c1ccc(N3CCCC3)cc1)C2 |  | 0.913
c1ccc(COC2CCN(c3nc4nonc4nc3N3CCSCC3)CC2)nc1 | 0.825 | 

Compounds above with fluorine (2):
SMILES | bacterial growth OD600 (polymyxin B 1 µg/mL) | bacterial growth OD600 (polymyxin B 0.75 µg/mL)
C=CCn1cc(CN2C[C@H]3OC(=O)N(CCc4ccc(F)cc4)[C@H]3C2)c(C)n1 |  | 0.852
CCOC(=O)C1(Cc2cccc(Cl)c2)CCCN(C(=O)CCC(F)(F)F)C1 (stereo unspecified) | 0.607 | 

The list continues.

SMILES | bacterial growth OD600 (polymyxin B 1 µg/mL) | bacterial growth OD600 (polymyxin B 0.75 µg/mL)
CC(=O)NCCNC(=O)c1ccc(OC2CCN(S(C)(=O)=O)CC2)c(Cl)c1 | 1.13 | 
CSc1ccc(NC(=O)NCc2cccnc2N(C)C)cc1 | 0.907 | 
COc1ccccc1CN1CC(C(=O)NCc2c(F)ccc(C)c2F)CCC1=O (stereo unspecified) | 0.79 | 
COCc1ccc(CN(C)CC2CCCN(CCc3ccc(Cl)cc3)C2)o1 (stereo unspecified) | 0.756 | 
O=C(c1coc(COc2ccccc2)n1)N1CCCC1c1nccs1 (stereo unspecified) | 0.937 | 
COc1cc(CN2CCN(Cc3ccc(F)c(OC)c3)CC2CCO)cc(OC)c1 (stereo unspecified) | 0.902 | 
COCC(=O)Nc1cc(C(=O)N(C)Cc2ccco2)cc2ncn(CCc3ccccc3)c12 |  | 0.771
C[C@@H]1CN(C2(C(=O)NCCCO)Cc3ccccc3C2)C[C@H](C)O1 |  | 0.805
Cc1ncsc1C(=O)N1CCCC(CCc2cccc(F)c2)C1 (stereo unspecified) |  | 0.541
COc1ccccc1OC1CCN(Cc2c[nH]nc2-c2ccc(C)c(C)c2)CC1 | 0.763 | 
COC(=O)[C@@H](NC(=O)c1ccccc1OC1CCN(S(C)(=O)=O)CC1)C(C)C | 1.03 | 
COc1ccc(CC2(CCC(=O)N(C)[C@@H]3CS(=O)(=O)C[C@H]3O)CCC(=O)N2)c2ccccc12 (stereo partly specified) |  | 1.01
COc1cccc(NC(=O)CCC2CCN(C(=O)Nc3ccc(OC)cc3C)CC2)c1 | 0.92 | 
CCOC(=O)C1(CCc2ccccc2)CCN(Cc2ccccn2)CC1 | 0.809 | 
Cc1ccc(-c2nc(CN3CCN(c4ccc(Cl)cn4)CC3)c(C)o2)o1 | 0.843 | 
